Source: PubChem BioAssay AID1259254 (NCATS, 2017)
Assay: 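Finding genes that stop cells copying their DNA twice in one cycle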 (primary screen). Cell system: human HCT116 colorectal cancer cells. Reagent: single siRNA against human genes. Duration: 3 days. Measurement: 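Nuclei stained with Hoechst and imaged; cell-cycle phase assigned by DNA content; G2 share scaled per plate, non-targeting siRNA 0%, GMNN siRNA 100%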. Scale: G2 robust z-score and G2 cells, % of GMNN control: higher = more G2 cells, more excess DNA replication. Call rule: 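Active siRNAs have a G2 robust z of 5 or more median absolute deviations over the median, which in these data means about 38% or higher of GMNN control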.
This is an unselected part of about 59,000 deposited reagents. About 1,550 of them (2.6%) count as active. 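G2 share is only a proxy for re-replication; each gene was hit by three separate siRNAs, and active genes were retested.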 A number with no mark means an inactive call. The numbers tell different reagents against one gene apart. Not all columns of the deposit are shown. Not given: the amount of reagent.

For SRP68 #1 the deposit lists G2 robust z-score -0.601; G2 cells, % of GMNN control -1.26.
Knock-down of SRP68 #2 came out at: G2 robust z-score 1.03; G2 cells, % of GMNN control 10.2.
Knock-down of SRP68 #3 came out at: G2 robust z-score -0.988; G2 cells, % of GMNN control -3.99.
After knock-down of MUC6 #1, the record shows G2 robust z-score 6.42 (active); G2 cells, % of GMNN control 48.1.
With knock-down of MUC6 #2, the screen gave G2 robust z-score -0.566; G2 cells, % of GMNN control -1.02.
MUC6 #3 scored G2 robust z-score -0.177; G2 cells, % of GMNN control 1.72.
Knock-down of HSD11B1 #1 came out at: G2 robust z-score 0.822; G2 cells, % of GMNN control 8.75.
HSD11B1 #2 showed G2 robust z-score -0.131; G2 cells, % of GMNN control 2.05.
HSD11B1 #3 gave G2 robust z-score -0.873; G2 cells, % of GMNN control -3.18.
TRIM26 #1 gave G2 robust z-score 2.09; G2 cells, % of GMNN control 17.7.
TRIM26 #2 scored G2 robust z-score -0.506; G2 cells, % of GMNN control -0.589.
For TRIM26 #3, the entry reads G2 robust z-score -0.418; G2 cells, % of GMNN control 0.0246.
WDR77 #1 showed G2 robust z-score -0.0143; G2 cells, % of GMNN control 2.87.
Against WDR77 #2, the entry reads G2 robust z-score -0.797; G2 cells, % of GMNN control -2.64.
Depletion of WDR77 #3 gave: G2 robust z-score 1.23; G2 cells, % of GMNN control 11.6.
With knock-down of CCDC14 #1, the screen gave G2 robust z-score 0.477; G2 cells, % of GMNN control 6.32.
With knock-down of CCDC14 #2, the record shows G2 robust z-score 1.7; G2 cells, % of GMNN control 15.
CCDC14 #3 scored G2 robust z-score -0.203; G2 cells, % of GMNN control 1.54.
After knock-down of TM4SF4 #1, the record shows G2 robust z-score 1.52; G2 cells, % of GMNN control 13.7.
With knock-down of TM4SF4 #2, the screen gave G2 robust z-score -0.356; G2 cells, % of GMNN control 0.462.
Depletion of TM4SF4 #3 gave: G2 robust z-score 0.15; G2 cells, % of GMNN control 4.03.
After knock-down of RNF5 #1, the screen gave G2 robust z-score 3.4; G2 cells, % of GMNN control 26.9.
RNF5 #2 gave G2 robust z-score -0.34; G2 cells, % of GMNN control 0.578.
Knock-down of RNF5 #3 resulted in: G2 robust z-score 1.22; G2 cells, % of GMNN control 11.6.

Taken from above.
MUC6 #3, G2 cells, % of GMNN control = 1.72
For “G2 cells, % of GMNN control”, SRP68 #2 is entered as 10.2
Under “G2 cells, % of GMNN control”, TRIM26 #1 is entered as 17.7
Entry for SRP68 #3 under “G2 robust z-score”: -0.988
